Assay results published in patent publication CN110585430A.
Results are given in words; binding and its absence hold for the method and conditions named. Some entries that bind do so weakly or less than the wild type.

Columns and labels:
[1] = biological target: T1, 重组人白介素17A (recombinant human interleukin 17A) (human) (UniProt Q16552); experiment: ELISA, rh IL-17A coated on plate, HRP goat anti-human IgG-Fc detection; relative binding activity vs reference; samples stored at 25℃±2℃
T1 sequence (looked up): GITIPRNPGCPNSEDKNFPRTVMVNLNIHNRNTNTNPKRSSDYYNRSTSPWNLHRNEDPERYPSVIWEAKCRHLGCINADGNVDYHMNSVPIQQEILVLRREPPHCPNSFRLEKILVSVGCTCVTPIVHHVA

[2] = biological target: T1, 重组人白介素17A (recombinant human interleukin 17A) (human); experiment: ELISA, rh IL-17A coated on plate, HRP goat anti-human IgG-Fc detection; relative binding activity vs reference; samples stored at 5℃±3℃

binding [1]: binds | binding [2]: binds
B1: 人源化抗人IL-17A单克隆抗体 (humanized anti-human IL-17A monoclonal antibody; SEQ ID NO.: 7 and SEQ ID NO.: 8) (antibody, V domains shown)
VH: QIQLVQSGPELKKPGETVKISCKASEYIFTNYGMNWVKEAPGKAFKWMGWIDTNTGEPTYAEDFKGRFAFSLDSSATSAFLQISNLKDDDTGTYFCANYGWGYFDYWGQGTTLTVSS
VL: DVVMTQTPLSLPVSLRDQASISCISSQSLVHSNGYTYLHWYLQKPGQSPKLLIYKVSNRFSGVPDRFSGSGSGTDFTLKISRVEAADLGVYFCSQSTHVPYTFGGGTKLEIK
